Laboratory results from PubChem BioAssay AID485314 (National Center for Advancing Translational Sciences (NCATS), 2010).
Among all 340,000 compounds or so, about 4,500 (1.3%) were called active. The inconclusive results got no clear call from the source; some entries with a clear call stand among them for comparison. Calls come from the whole dose curve; as a rule, active = well fitted inhibition curve with a large enough effect; inconclusive = small, poorly fitted or top-dose-only effect, or another doubt; inactive = no such curve, though single readings can be large or run the other way. Potencies of inconclusive entries are doubtful fits and often do not repeat.

Molecular target: DNA polymerase beta (Homo sapiens) (UniProt P06746)
Experiment: qHTS Assay for Inhibitors of DNA Polymerase Beta
Details: Pol beta primer extension/strand displacement, fluorescence kinetic; activity change, negative = inhibition: at 114 µM (top of the series)
Method in brief: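 Values derive from four-parameter Hill fits of normalized kinetic data: reads at 0 and 10 min following addition of 50 nM substrate to 10 nM Pol beta preincubated 15 min with compound.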
% is set by controls: 0 for no effect and ±100 for the full control effect; potency is the fitted concentration of half-maximal effect.

| Compound | Potency | activity change, negative = inhibition |
| --- | --- | --- |
| CC(=O)NC(=S)Nc1sc2c(c1C#N)CCCCC2 | inactive |  |
| COc1ccc(CNc2nc3c(-c4cccc(F)c4)nnn3c3ccccc23)cc1 | inconclusive: 3.16 µM [inhibitor, partial curve, poor fit] |  |
| O=C(O)CCc1ccc(-c2ccc(Cl)cc2)o1 | inactive |  |
| O=C(Nc1ccc2c(c1)OCO2)c1ccc(S(=O)(=O)NCC2CCCO2)cc1 (stereo unspecified) | inconclusive: 100 µM [inhibitor, single point] |  |
| COc1cc(Cl)c(C)cc1NC(=O)CCc1nc2cccnc2n1Cc1cccs1 | inconclusive: 70.8 µM [inhibitor, single point] |  |
| Fc1ccc(C(NCCc2ccccc2)c2nnc(-c3ccccc3Cl)o2)cc1 (stereo unspecified) | inconclusive: 100 µM [inhibitor, single point] |  |
| Cc1ccc(C(=O)NCc2ccco2)cc1S(=O)(=O)N1CCCCC1 | active: 39.8 µM |  |
| O=C(O)c1cccc(NC(=S)NC(=O)c2ccc(-c3ccc(Cl)cc3)o2)c1 | inconclusive: 35.5 µM [inhibitor, single point] |  |
| Cc1ccc(N=C2NC(=O)CC(C(=O)Nc3ccc4c(c3)OCO4)S2)cc1 (stereo unspecified) | inconclusive: 8.91 µM [inhibitor, full curve] |  |
| CCCCn1c(O)c(N=NC(=O)c2ccccc2NS(=O)(=O)c2cccs2)c2ccccc21 | inconclusive: 89.1 µM [inhibitor, single point] |  |
| CN1CCN(S(=O)(=O)c2ccc(Cl)c3ccccc23)CC1 | inconclusive: 0.282 µM [inhibitor, full curve, poor fit] |  |
| CC(C)c1ccc(/C=C2\NC(=O)NC2=O)cc1 | inconclusive: 3.98 µM [inhibitor, single point] |  |
| Cc1ccc(NC(=O)c2cc(S(=O)(=O)N3CCCC3)cn2C)cc1C | inactive |  |
| CCOC(=O)c1ccc(NC(=O)CCCn2c(=O)c3cccn3c3cccnc32)cc1 | inconclusive: 56.2 µM [inhibitor, partial curve] |  |
| FC(F)Oc1ccc(NC(=S)N2CCc3ccccc32)cc1 | inconclusive: 70.8 µM [inhibitor, single point] |  |
| CC1(C)Cc2c(C#N)c(N3CCN(C(=O)c4ccccc4)CC3)nc(-c3ccco3)c2CS1 | active: 28.2 µM |  |
| COc1cccc(/C=N/NC(=O)c2ccc(-c3ccccc3)cc2)c1O | inactive |  |
| COc1ccc(C(=O)c2ccccc2)c(OCC(=O)N(C)C)c1 | inconclusive: 31.6 µM [inhibitor, single point] |  |
| C[N+]1(C)CCC(=C2c3ccccc3CC(=O)c3sccc32)CC1 | active: 7.94 µM |  |
| O=C(Cn1ncn2c(cc3ccccc32)c1=O)NCc1ccco1 | active: 50.1 µM |  |
| C#C[C@]1(O)CC[C@H]2C3CCC4=Cc5oncc5CC4(C)C3CCC21C (stereo partly specified) | inactive |  |
| CN(c1ccc(C(=O)Nc2ccccc2Sc2ccccc2)cc1)S(C)(=O)=O | inconclusive: 5.01 µM [inhibitor, full curve, poor fit] |  |
| COc1ccc(C2=CC3=C(Br)C(=O)C(C)(OC(=O)c4ccc(Cl)nc4)C(=O)C3=CO2)cc1 (stereo unspecified) | active: 50.1 µM |  |

| Compound | Potency | activity change, negative = inhibition |
| --- | --- | --- |
| Cc1ccccc1OCC(=O)Nc1ccc2nc(SCC(N)=O)sc2c1 | inconclusive: 56.2 µM [inhibitor, partial curve, poor fit] |  |
| CC(C)(C)c1ccc(C(=O)Nc2cccc3c(=O)[nH][nH]c(=O)c23)cc1 | inconclusive: 89.1 µM [inhibitor, single point] |  |
| O=C(O)c1ccc(-n2cccc2/C=C2/SC(=O)N(CC(=O)N3CCCC3)C2=O)cc1 | active: 2 µM |  |
| Cc1cc(NC(=O)c2cc3n(n2)C(C(F)(F)F)CC(c2ccco2)N3)n(-c2ccccc2)n1 (stereo unspecified) | inconclusive: 89.1 µM [inhibitor, single point] |  |
| CC1=C(C(=O)Nc2ccccc2)C(c2ccc[nH]2)n2ncnc2N1 (stereo unspecified) | active: 8.91 µM |  |
| C=CCc1cccc(/C=N/NC(=O)COc2ccc(-n3cnnn3)cc2)c1O | inconclusive: 2.51 µM [inhibitor, single point] |  |
| Cc1cc(C)nc(N/N=C/c2ccc(N3CCOCC3)cc2)n1 | inconclusive: 0.631 µM [inhibitor, full curve, poor fit] |  |
| CN1C=CC=C/C1=C1\SC(=S)N(N)C1=O | inconclusive: 0.282 µM [inhibitor, full curve, poor fit] |  |
| Cn1c(SCC(=O)OC2CCCCC2)nnc1-c1ccc(S(=O)(=O)N2CCCC2)cc1 | inconclusive: 1.41 µM [inhibitor, full curve, poor fit] |  |
| Cc1ccc(C(=O)O/N=C(\N)c2ccc(C(F)(F)F)cn2)cc1 |  | inconclusive: -34.5% [inhibitor] |
| Cn1c(-c2ccc(F)cc2)cnc1NCc1cccc([N+](=O)[O-])c1 | inconclusive: 89.1 µM [inhibitor, single point] |  |
| Cc1coc2cc3oc(=O)c(CCC(=O)O)c(C)c3cc12 |  | inconclusive: -33% [inhibitor] |
| O=C1CNC(=S)N1Cc1ccccc1Cl | inconclusive: 56.2 µM [inhibitor, partial curve] |  |
| Cc1cc(C)c(S(=O)(=O)NCc2cccnc2)cc1C | inconclusive: 0.316 µM [inhibitor, full curve, poor fit] |  |
| Cc1cccc(C)c1NC(=O)CSc1nc2ccccc2c2nc(CCc3c(C)n[nH]c3C)nn12 | inconclusive: 10 µM [inhibitor, full curve] |  |
| COc1ccc(CNc2ncnc3c2[nH]c2cc(OC)c(OC)cc23)cc1 | active: 6.31 µM |  |
| CCc1ccc(NC(=O)C2CC=CCC2C(=O)O)cc1 (stereo unspecified) | inactive |  |
| N#C/C(=C(/O)CSc1nnc(Cc2cccs2)n1C1CCCCC1)c1nc2ccccc2[nH]1 | active: 17.8 µM |  |
| Cc1ccc(S(=O)(=O)/N=C2/NC(=O)/C(=C/c3ccccc3)S2)cc1 | inconclusive: 89.1 µM [inhibitor, single point] |  |
| Cc1ccc(NC(=O)Cn2c(=O)n(Cc3ccc(C(=O)NCc4ccc5c(c4)OCO5)cc3)c(=O)c3ccccc32)cc1 | inconclusive: 8.91 µM [inhibitor, full curve, poor fit] |  |
| C/C(N)=C(/C#N)C(=O)COC(=O)Cc1coc2cc(C)ccc12 | inconclusive: 14.1 µM [inhibitor, full curve] |  |
| N#Cc1c(-c2ccco2)cc(-c2ccccc2)[nH]c1=O |  | inconclusive: -130% [inhibitor] |
| O=C(OCc1cc(=O)n2nc(C3CC3)sc2n1)c1ccccc1Cl | inactive |  |
| O=C(CSc1ncn[nH]1)NCCc1ccccc1 | inconclusive: 17.8 µM [inhibitor, partial curve, poor fit] |  |

Another view of part of the listing above.
Compound	Potency	activity change, negative = inhibition
Cc1cc(C)c(S(=O)(=O)NCc2cccnc2)cc1C	inconclusive: 0.316 µM [inhibitor, full curve, poor fit]	
Cc1cccc(C)c1NC(=O)CSc1nc2ccccc2c2nc(CCc3c(C)n[nH]c3C)nn12	inconclusive: 10 µM [inhibitor, full curve]	
COc1ccc(CNc2ncnc3c2[nH]c2cc(OC)c(OC)cc23)cc1	active: 6.31 µM	
CCc1ccc(NC(=O)C2CC=CCC2C(=O)O)cc1 (stereo unspecified)	inactive	
N#C/C(=C(/O)CSc1nnc(Cc2cccs2)n1C1CCCCC1)c1nc2ccccc2[nH]1	active: 17.8 µM	
Cc1ccc(S(=O)(=O)/N=C2/NC(=O)/C(=C/c3ccccc3)S2)cc1	inconclusive: 89.1 µM [inhibitor, single point]	

Additional entries

| Compound | Potency | activity change, negative = inhibition |
| --- | --- | --- |
| CCCCNC(=O)c1onc(CSc2ccc(OC)cc2)c1C(=O)O | inactive |  |
| O=C(c1ccc2nc(-c3ccco3)c(-c3ccco3)nc2c1)N1CCN(c2ccccc2)CC1 | active: 11.2 µM |  |
| CCOc1ccc(N(CC(=O)NCCOc2ccccc2OC)S(=O)(=O)c2ccccc2)cc1 | inconclusive: 39.8 µM [inhibitor, single point] |  |
| COc1cc(N=c2ssnc2Cl)cc(OC)c1 | inactive |  |
| COc1cc(NC(=O)CCS(=O)(=O)c2ccc3c(c2)n(C)c(=O)c(=O)n3C)cc(OC)c1 | inconclusive: 0.199 µM [inhibitor, full curve, poor fit] |  |
| CC(=O)Nc1nc2ccccc2n1CCN(C)C | inconclusive: 12.6 µM [inhibitor, partial curve] |  |
| CCOc1ccc(/C=C/c2nc(C#N)c(N3CCC(C)CC3)o2)cc1 | inactive |  |
| COc1ccccc1CNC(=O)CCCCn1c(=O)c2ccccc2n(CC(=O)Nc2cccc(Cl)c2)c1=O | inactive |  |
| CCc1ccc(Sc2cc(C(=O)NCCCN3CCC(C)CC3)c3ccccc3n2)cc1 | inactive |  |
| COCCSc1nc2c(c(=O)[nH]c(=O)n2C)n1CCCc1ccccc1 | inactive |  |
| Cc1nnc(SCC(=O)Nc2ccc(N(C)C)cc2)[nH]c1=O | inactive |  |
| COc1ccc(N2C(=O)C(CC(=O)Nc3ccccc3)N(Cc3ccccn3)C2=S)cc1 (stereo unspecified) | inactive |  |
| COc1ccc(NC(=O)CSc2nc3ccc(OC)cc3[nH]2)cc1 |  | inconclusive: -45.5% [inhibitor] |
| COc1ccccc1NCC(=O)N/N=C/C=C/c1ccccc1 | inconclusive: 79.4 µM [inhibitor, single point] |  |
| CCOc1ccc(Sc2cc(C(=O)NCc3ccccc3Cl)c3ccccc3n2)cc1 | inactive |  |
| CN(C)c1ccc(/C=N/NC(=O)c2ccc(CN3CCOCC3)cc2)cc1Br | inconclusive: 50.1 µM [inhibitor, partial curve] |  |
| C=C(C)CC1N(c2cccc(OC)c2)C(=O)C2C(C(=O)O)C3C=CC21O3 (stereo unspecified) | inactive |  |
| Cc1ccc(CNC(=O)CCCN2C(=O)CCn3nc(-c4cccn4C)cc32)cc1 | inactive |  |
| CCOC(=O)c1ccc2c(c1)N(Cc1ccc(F)cc1Cl)C(=O)c1ccccc1S2 | inactive |  |
| COc1cccc(-c2c(C(=O)N/N=C/c3cccs3)nnn2-c2nonc2N)c1 | inactive |  |
| COCc1cc(C)nc(N/N=C/c2ccc(-c3ccc(Cl)cc3[N+](=O)[O-])o2)c1C#N | inconclusive: 56.2 µM [inhibitor, partial curve] |  |
| Cc1cc(OC(C)C(=O)NC(Cc2c[nH]c3ccc(O)cc23)C(=O)O)c2c(C)c(C)c(=O)oc2c1 (stereo unspecified) | inconclusive: 0.0794 µM [inhibitor, full curve, poor fit] |  |
| COc1cccc([C@@H]2Oc3ccc(OC)cc3C(=O)[C@H]2O)c1 | inconclusive: 89.1 µM [inhibitor, single point] |  |
